Results deposited as PubChem BioAssay AID504764 (Drosophila RNAi Screening Center, 2011).
Purpose: 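Knock-downs that raise or lower a Notch target reporter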 (primary screen). System: Drosophila Kc167 cells. Reagents: long dsRNA against Drosophila genes. Timing: about 5 days (4 days dsRNA, then 24 h after transfection). Challenge: transfection of constitutively active membrane-tethered Notch lacking the extracellular domain, read 24 h later. Read-out: 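Firefly luciferase from an E(spl)m3 reporter with active Notch, plus control-promoter and uninduced reporter wells for normalisation; unnormalised counts, duplicate wells a and b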. Direction: induced reporter light, run 1, well a and induced reporter light, run 1, well b: higher = more light from the Notch target reporter with active Notch; control promoter light, run 1, well a and control promoter light, run 1, well b: higher = more light from the viral control promoter (cell number, transfection, viability); uninduced reporter light, run 1, well a: higher = more light from the Notch target reporter without active Notch. Active means: 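Wells with low control signal or poorly matching duplicates excluded; duplicates averaged; per source plate, z beyond ±2 for induced/control log2 ratio or beyond ±1.8 for induced/uninduced marks a hit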. Meaning of the calls: active = modifier hit (raised or lowered Notch signal); inactive = not a hit.
The deposit covers about 22,000 reagents; shown is a random part of those that have a named target and a result. Over the whole deposit, 403 (1.9%) got an active call. 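Unnormalised raw counts per well; ratio z-scores behind the hit calls and whether each hit raises or lowers signal are not deposited.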 The numbers tell different reagents against one gene apart. A plus sign joins genes that one reagent is predicted to hit. Not stated in the record: the amount of reagent.

gene knocked down,reagent no.,"induced reporter light, run 1, well a","induced reporter light, run 1, well b","control promoter light, run 1, well a","control promoter light, run 1, well b","uninduced reporter light, run 1, well a",activity call
rl (rolled),1,1.10e5,1.20e5,1.46e5,1.53e5,8185,inactive
rl (rolled),2,84655,90575,71365,65810,8932,inactive
rl (rolled),3,,,,,,inactive
Arl5 (ADP-ribosylation factor-like 5),1,1.12e5,1.07e5,97905,26075,10350,inactive
AstA (Allatostatin A),1,1.59e5,1.69e5,1.96e5,2.08e5,12935,inactive
Gad1 (Glutamic acid decarboxylase 1),1,75275,89060,68935,33470,6100,inactive
Jhbp3 (Juvenile hormone binding protein 3),1,1.09e5,1.34e5,1.57e5,1.01e5,11275,inactive
CG42729,1,1.95e5,1.77e5,2.45e5,2.26e5,5610,inactive
s-cup (stanley-cup),1,80270,83475,1.04e5,1.06e5,8095,inactive
s-cup (stanley-cup),2,78785,72675,1.22e5,1.17e5,8395,inactive
CG3793,1,2.36e5,2.51e5,1.87e5,1.82e5,14905,inactive
fand (fandango),1,98900,85385,1.10e5,88590,6825,inactive
CG34251,1,1.68e5,1.86e5,2.06e5,2.08e5,19695,inactive
CG34251,2,2.14e5,1.92e5,2.43e5,2.69e5,16175,inactive
EMC5 (ER membrane protein complex subunit 5),1,61090,46195,40625,65560,2605,inactive
CG1628,1,1.82e5,1.36e5,1.86e5,1.98e5,9855,inactive
Obp83a (Odorant-binding protein 83a),1,85030,1.05e5,83570,73600,4505,inactive
CG31867,1,1.17e5,1.39e5,61125,87405,14885,inactive
CR31824 (pseudo),1,77330,77730,75105,70225,5665,inactive
tkv (thickveins),1,81325,84680,79400,95210,8450,inactive
tkv (thickveins),2,1.94e5,1.99e5,1.80e5,1.76e5,17615,inactive
Cht9 (Chitinase 9),1,1.81e5,1.83e5,1.69e5,1.82e5,13415,inactive
CG12003,1,1.17e5,1.53e5,2.90e5,2.53e5,8015,inactive
CG12511,1,56480,57930,66340,70390,3550,inactive
CG16824,1,88290,1.17e5,1.04e5,1.26e5,7915,inactive
GstD2 (Glutathione S transferase D2),1,82510,90200,76340,59700,5385,inactive
mah (mahogany),1,2.53e5,2.11e5,2.69e5,2.77e5,20645,inactive
CG10939,1,1.03e5,1.15e5,1.83e5,2.43e5,10460,inactive
CG10939,2,,,,,,inactive
CatB (Catalase B),1,1.95e5,2.21e5,1.88e5,1.95e5,13910,inactive
SPR (Sex peptide receptor),1,88250,1.05e5,76645,80895,6240,inactive
SPR (Sex peptide receptor),2,1.64e5,1.63e5,3.35e5,3.14e5,14045,inactive
SPR (Sex peptide receptor),3,1.67e5,1.52e5,4.15e5,2.85e5,12060,inactive
CG31845 (retired record),1,,,,,,inactive
Cys (Cystatin-like),1,2.24e5,1.85e5,2.00e5,1.89e5,14350,inactive
niki (nimA-like kinase),1,1.79e5,1.38e5,1.45e5,1.51e5,9488,inactive
CG1537,1,1.46e5,1.34e5,3.09e5,2.66e5,10425,inactive
Clamp (Chromatin-linked adaptor for MSL proteins),1,1.03e5,1.37e5,74515,87625,7090,inactive
CG5556,1,2.33e5,1.68e5,1.79e5,1.56e5,12650,inactive
CG17470,1,1.76e5,1.47e5,1.33e5,1.66e5,11175,inactive
spoon (spoonbill),1,2.36e5,2.14e5,2.10e5,2.46e5,15988,inactive
CG31104,1,1.29e5,1.28e5,1.95e5,2.00e5,11770,inactive
CG11345,1,2.67e5,2.31e5,2.52e5,2.43e5,17645,inactive
Pdhb (Pyruvate dehydrogenase E1 beta subunit),1,1.84e5,1.76e5,2.04e5,1.92e5,11165,inactive
Hydr2 (alpha/beta hydrolase2),1,1.77e5,2.14e5,2.05e5,1.81e5,19245,inactive
CG11902,1,1.46e5,1.82e5,1.69e5,2.23e5,13665,inactive
CG15143,1,1.23e5,1.55e5,1.16e5,1.35e5,11190,inactive
org-1 (optomotor-blind-related-gene-1),1,22642,17850,44460,35115,3710,inactive
Snp (Snipper),1,31510,28355,29805,27550,2275,inactive
CG10628,1,37095,44645,54495,45935,4095,inactive
CG14777,1,1.25e5,1.12e5,1.92e5,1.96e5,7705,inactive
Ho (Heme oxygenase),1,1.30e5,1.31e5,1.01e5,81260,9380,inactive
CG2004,1,1.41e5,1.26e5,2.71e5,2.13e5,10550,inactive
CG17221,1,1.94e5,1.31e5,1.97e5,1.83e5,11420,inactive
Incenp (Inner centromere protein),1,2.23e5,1.88e5,1.50e5,1.75e5,13725,inactive
Incenp (Inner centromere protein),2,,,,,,active
Cow,1,1.89e5,2.21e5,3.66e5,3.33e5,11840,inactive
Cow,2,1.65e5,1.58e5,1.93e5,1.76e5,12245,inactive
Orco (Odorant receptor co-receptor),1,94825,98940,62160,73770,6165,inactive
CG33306,1,2.07e5,2.44e5,1.88e5,2.10e5,16300,inactive
mrva (minerva),1,1.26e5,1.03e5,68455,25430,8585,inactive
CG14183,1,1.18e5,1.12e5,69500,81975,9330,inactive
His2B:CG33870 + His2B:CG33868 + His2B:CG33882 + 21 more,1,27330,22440,17620,16550,1565,inactive
CG30289,1,79840,60065,68795,69515,8315,inactive
